From PubChem BioAssay AID504444 (National Center for Advancing Translational Sciences (NCATS), 2011)
Values joined by “and” are separate entries in the source; they are usually repeats but may differ in a detail not shown here. Identical values can stand only once. The campaign covered roughly 360,000 compounds. About 7,500 (2.1%) were called active. This list was built around the results that the source calls inconclusive (neither active nor inactive); the mix of calls is not that of the screen. The call rests on the fitted dose curve; in most records, active means well fitted inhibition curve with a large enough effect; inconclusive means small, poorly fitted or top-dose-only effect, or effect the other way; inactive means flat fitted curve, though single readings scatter. Where the call is inconclusive, the potency comes from a doubtful curve fit.

Assay: Nrf2 qHTS screen for inhibitors; further: nearly all actives have a fitted effect of over 60% in size
Settings: A549 ARE-Fluc reporter, luciferase luminescence, 18-24 h; series mostly up to 46 µM
In short: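 Cells were seeded and rested 2 h, then exposed to compounds for 18-24 h. CellTiter-Fluor was read first as a viability measure. BugLite was added 15 min before the final luminescent read of ARE-luciferase activity in A549 cells.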
Potency means the concentration at half of the fitted maximal effect.

Question: For O=C(COc1cc(O)c2c(=O)c3ccccc3oc2c1)OCc1ccccc1, which Potency is on record?
Answer: The Potency was “inactive”.

Question: Which Potency does the source give for O=S(=O)(c1cc(O)ccc1O)c1cccc2c(S(=O)(=O)c3cc(O)ccc3O)cccc12 here?
Answer: Its Potency is “inactive”.

Question: With COc1ccccc1/C=C(/C(=O)NCCCn1ccnc1)c1ccccc1 as the compound, how does the Potency read?
Answer: Its Potency is inconclusive: 6.51 µM [falling, single point].

Question: For Cc1ccc(NC(=O)NC(=O)CSc2nnc(-c3ccc(OC(F)F)cc3)n2N)c(C)c1, which Potency is on record?
Answer: The Potency was inconclusive: 29.1 µM [activator, single point].

Question: With COc1ccc(-c2cnnc(N/N=C/c3ccc(OC)c(OC)c3)n2)cc1 as the compound, how does the Potency read?
Answer: The Potency was inconclusive: 14.6 µM [falling, single point].

Question: For CC(=O)c1c(O)cc2n(c1=O)-c1ccc(Cl)cc1C2(C)C, which Potency is on record?
Answer: The Potency was inconclusive: 29.1 µM [falling, single point].

Question: With CC(OC(=O)C1CSC2(c3ccc(F)cc3)CCC(=O)N12)C(=O)NC(N)=O (configuration not stated) as the compound, how does the Potency read?
Answer: Its Potency is inconclusive: 1.16 µM [activator, full curve, poor fit].

Question: With Cc1cccc(C(=O)Nc2nc3ccc(S(C)(=O)=O)cc3s2)c1 as the compound, how does the Potency read?
Answer: Its Potency is inconclusive: 20.6 µM [activator, single point].

Question: Which Potency does the source give for C(=N\N1CCN(Cc2cccc3ccccc23)CC1)/c1cccnc1 here?
Answer: The Potency was inconclusive: 23.1 µM [falling, single point].

Question: For CCOC(=O)CNC(=O)CC(c1cc(OC)c(OC)c(OC)c1)N1Cc2ccccc2C1=O (configuration not stated), which Potency is on record?
Answer: Its Potency is inconclusive: 0.146 µM [activator, full curve, poor fit].

Question: With Cc1nc2c3cc(F)ccc3n(Cc3ccccc3F)c2s1 as the compound, how does the Potency read?
Answer: Its Potency is inconclusive: 3.26 µM [activator, full curve].

Question: Which Potency does the source give for Cc1cc(C(=O)N/N=C2\CC(=O)c3ccccc32)c(C)n1-c1ccccc1 here?
Answer: Its Potency is inconclusive: 4.11 µM [activator, single point].

Question: With O=C(CSc1n[nH]c(-c2cccnc2)n1)Nc1ccc([N+](=O)[O-])cc1Br as the compound, how does the Potency read?
Answer: Its Potency is inconclusive: 29.1 µM [falling, single point].

Question: With CN(CC(=O)Nc1cccc(F)c1)CC(=O)Nc1ccccc1[N+](=O)[O-] as the compound, how does the Potency read?
Answer: The Potency was inconclusive: 29.1 µM [falling, single point].

Question: Which Potency does the source give for Cc1nc(N2CCN(C(=O)c3ccco3)CC2)c2oc3ccccc3c2n1 here?
Answer: Its Potency is active: 20.6 µM.

Question: For COc1ccc(C2C=C(c3ccccc3)Nc3nc(NS(=O)(=O)c4ccc(C)cc4)nn32)cc1 (configuration not stated), which Potency is on record?
Answer: Its Potency is active: 18.4 µM.

Question: With Oc1c(C(c2ccccn2)N2CCCCC2)cc(Cl)c2cccnc12 (configuration not stated) as the compound, how does the Potency read?
Answer: The Potency was inconclusive: 29.1 µM [falling, single point].

Question: Which Potency does the source give for COc1ccc(/C=C/C(=O)c2c(O)cc(C)oc2=O)c(OC)c1 here?
Answer: Its Potency is inconclusive: 29.1 µM [falling, single point].

Question: Which Potency does the source give for CCN1C(=O)[C@H]2[C@H]3CN=C(SCC(=O)c4ccccc4)N3[C@@](C)(C(=O)OC)[C@H]2C1=O here?
Answer: Its Potency is inconclusive: 18.4 µM [activator, single point].

Question: With O=C1c2ccccc2NC(c2ccc3c(c2)OCCO3)N1c1ccc2c(c1)OCCO2 (configuration not stated) as the compound, how does the Potency read?
Answer: The Potency was inconclusive: 1.84 µM [activator, full curve, poor fit].

Question: For CCOc1ccccc1C(=O)N1CCN(c2ccc(C(F)(F)F)cn2)CC1, which Potency is on record?
Answer: The Potency was inconclusive: 16.4 µM [falling, partial curve].

Question: Which Potency does the source give for CC(=O)c1ccc(-n2cc(-c3ccc(C(C)(C)C)cc3)[n+]3c2SCCC3)cc1 here?
Answer: The Potency was inconclusive: 13 µM [falling, partial curve].

Question: With Nc1nc(Nc2ccccc2)nc(NCc2ccccc2)c1[N+](=O)[O-] as the compound, how does the Potency read?
Answer: The Potency was active: 23.1 µM.

Question: With Cn1c(CCNC(=O)c2ccccc2)nc2cc(NC(=O)c3ccco3)ccc21 as the compound, how does the Potency read?
Answer: Its Potency is “inactive”.

Question: For N#Cc1cccc(NC(=O)CNc2cccc(S(=O)(=O)N3CCCC3)c2)c1, which Potency is on record?
Answer: Its Potency is active: 7.31 µM.

Question: With Cn1cnnc1SCC(=O)Nc1ncc([N+](=O)[O-])s1 as the compound, how does the Potency read?
Answer: The Potency was inconclusive: 29.1 µM [activator, single point].

Question: With O=C(CNC(=O)c1ccccc1F)NCCc1ccccc1F as the compound, how does the Potency read?
Answer: The Potency was inconclusive: 4.61 µM [activator, partial curve, poor fit].

Question: With COc1ccc(C(=O)Nc2nc3ccccc3c(=O)[nH]2)cc1 as the compound, how does the Potency read?
Answer: The Potency was inconclusive: 1.84 µM [activator, full curve, poor fit].

Question: With COc1ccccc1-c1cc(N)n(S(=O)(=O)c2cccc3nsnc23)n1 as the compound, how does the Potency read?
Answer: The Potency was inconclusive: 32.6 µM [falling, single point].

Question: Which Potency does the source give for Cc1ccc2c(C)c(C(=O)N3CCC(c4nc5ccccc5s4)CC3)oc2c1C here?
Answer: Its Potency is “inactive”.

Question: With O=C(COC(=O)c1ccc(F)cc1Cl)NCc1ccco1 as the compound, how does the Potency read?
Answer: Its Potency is inconclusive: 14.6 µM [falling, partial curve, poor fit].

Question: For CCn1c(SC)nnc1C1CCN(CC(=O)Nc2ccccc2N2CCOCC2)CC1, which Potency is on record?
Answer: Its Potency is inconclusive: 29.1 µM [activator, partial curve, poor fit].

Question: Which Potency does the source give for CC(C)(C)NC(=O)COC(=O)CNC(=O)C1CCCCC1 here?
Answer: The Potency was “inactive”.

Question: For S=C(NC1CCCCC1)N1CCOCCOCCN(C(=S)NC2CCCCC2)CCOCCOCC1, which Potency is on record?
Answer: Its Potency is active: 16.4 µM.

Question: Which Potency does the source give for COc1ccc(NC(=O)C2=C(C)Nc3c(C(=O)Nc4ccc(C)cc4)cnn3C2c2cc(OC)ccc2OC)cc1 (configuration not stated) here?
Answer: The Potency was inconclusive: 5.8 µM [activator, full curve, poor fit].

Question: Which Potency does the source give for COc1cccc(NC(=O)Cn2c(=O)n(Cc3ccccc3)c(=O)c3c2c2cc(C)ccc2n3C)c1 here?
Answer: Its Potency is “inactive”.

Question: For CCOc1ccc(Br)cc1C(=O)N/N=C/c1cccc(C)n1, which Potency is on record?
Answer: The Potency was inconclusive: 0.164 µM [falling, full curve, poor fit].

Question: Which Potency does the source give for Cc1nc(NC(=O)c2c(-c3ccccc3Cl)noc2C)sc1C here?
Answer: Its Potency is inconclusive: 18.4 µM [falling, single point].

Question: For Cc1nn(C(C)(C)C)c(OC(=O)c2ccc(Br)o2)c1Sc1ccccc1, which Potency is on record?
Answer: The Potency was inconclusive: 13 µM [falling, partial curve, poor fit].

Question: Which Potency does the source give for COc1cccc(Nc2nc(N)nc(-c3oc4ccccc4c3C)n2)c1 here?
Answer: Its Potency is “inactive”.

Question: For CC(NC(=O)CSc1nnc(-c2cc3cc(Cl)ccc3o2)n1C)c1ccccc1 (configuration not stated), which Potency is on record?
Answer: The Potency was inconclusive: 13 µM [falling, partial curve, poor fit].

Question: With CCCN1CCc2nc(SCC(=O)Nc3ccc(C)c(Cl)c3)[nH]c(=O)c2C1 as the compound, how does the Potency read?
Answer: The Potency was inconclusive: 8.2 µM [activator, partial curve] and inconclusive: 29.1 µM [activator, single point].
